Literature values in US11304968B2, “Pharmaceutical compositions comprising a hydroxyethylquercetin glucuronide” (JANSSEN PHARMACEUTICA NV, priority 2018, dated 2022).
Some results were stated once for a whole list of compounds, not compound by compound. At least one structure is not confirmed: it was looked up by name or label, or the drawing left a doubt. Some compounds share one range, which may span the group rather than tell each member.

System: circulating plasma levels of ACTH and corticosterone
Conditions: rats

SMILES | downregulation of circulating plasma levels of ACTH and corticosterone
O=c1c(O[C@@H]2O[C@H](CO)[C@@H](O)[C@H](O)[C@H]2O)c(-c2ccc(O)c(O)c2)oc2cc(O)cc(O)c12 [isoquercetin] | 40-70%
O=c1c(O[C@@H]2O[C@H](CO)[C@H](O)[C@H](O)[C@H]2O)c(-c2ccc(O)c(O)c2)oc2cc(O)cc(O)c12 [hyperoside] | 40-70%
